The values that follow come from PubChem BioAssay AID463205 (Broad Institute, 2010).

Molecules are shown by their SMILES. Screen size: about 2,400 compounds; about 20 (0.8%) were called active.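 How the source made its calls: active means AC50 no more than ten times the highest tested concentration, or full inhibition at every dose giving a flat fit (cut at about 30 µM in these data); inconclusive means flat fit with activity between 30% and 70%, or poor-quality invalid fit; inactive means AC50 more than ten times the top tested dose.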 The list shows a part of the results.

The assay is described as follows: inhibitors of ADP-Glo detection reagents, dose response, artefact control for GSK-3a inhibitor project, biochemical, luminescence, cell-free, homogeneous (AID 463205).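 Further: kinase-free counter-screen against the ADP-Glo detection reagents only; potency is for inhibitors that reduce the luminescence signal.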 As to conditions: 5 uM ADP. Background: In ADP-Glo the light output rises with the ADP produced.
Take `CC(C)c1ccc(NC(=O)CSc2n[nH]c(=O)n2-c2ccc3c(c2)OCCO3)cc1`: the AC50 is inactive: > 30 µM. The figure for `N#CC1=C2SCN(Cc3ccccc3)CN2C(=O)CC1c1ccc2c(c1)OCO2` (centres undefined) is inactive: > 30 µM. Next, `COc1cc(C2c3sc(=O)[nH]c3SC3C(=O)N(c4ccc(Br)cc4)C(=O)C32)ccc1O` (centres undefined): inactive: > 30 µM. Next, `CCN(C(=O)CN1CCCC(C)C1)c1c(N)n(Cc2ccccc2)c(=O)[nH]c1=O` (centres undefined): inactive: > 30 µM; `O=C(Cc1c(F)cccc1Cl)Nc1ncc([N+](=O)[O-])s1`: inactive: > 30 µM; `Cc1cc(/C=N\NC(=O)c2cccs2)c(C)n1-c1ccc2ncccc2c1`: inactive: > 30 µM. Consider `Cc1nc(Nc2ccc(S(N)(=O)=O)cc2)oc1C`, for which the AC50 was inactive: > 30 µM. Next, `CC1CCC2(CC1)NC(=O)N(CC(=O)Nc1ccc(C(N)=O)cc1)C2=O` (centres undefined): inactive: > 30 µM; `O=C(Nc1cccc(Cl)c1N1CCCC1)c1ccc(Br)o1`: inactive: > 30 µM.

Turning to `CN(C)c1ccc(Nc2nc(N)c3ccccc3n2)cc1`, the AC50 was active: 22.8 µM. Turning to `CC1=C(C(=O)OCc2ccc3c(c2)OCO3)C(c2ccc(F)cc2)NC(=O)N1` (centres undefined), the AC50 was inactive: > 30 µM.

For `O=C(Nc1ncc([N+](=O)[O-])s1)c1cccs1`, the AC50 is inactive: > 30 µM. Consider `Cn1c(=O)c2c(-c3ccccc3)n(Cc3ccccn3)cc2n(C)c1=O`, for which the AC50 was inactive: > 30 µM. The figure for `CN1C(=O)/C(=C/c2ccc3c(c2)OCO3)N=C1c1ccccc1` is inactive: > 30 µM; for `Cc1cnc(NC(=O)C2COc3ccccc3O2)s1` (centres undefined) it is inactive: > 30 µM. The figure for `COc1cccc(/C=N/Nc2ccc([N+](=O)[O-])cn2)c1O` is inactive: > 30 µM; for `COc1ccc(C=O)cc1OS(=O)(=O)c1ccccc1[N+](=O)[O-]` it is inactive: > 30 µM. `CC1(C)OC2OC(COC(=O)c3ccccc3)C3OC(C)(C)OC3C2O1` (centres undefined): the AC50 was inactive: > 30 µM. Next, `N#Cc1ccccc1Cn1cc(/C=N/Nc2ccc([N+](=O)[O-])cn2)c2ccccc21`: inactive: > 30 µM; `Cc1ccc2oc(=O)c3cnn(CC(=O)N4CCCCCC4)c3c2c1`: inactive: > 30 µM; `NC(=O)N/N=C/c1c(O)ccc2oc3c(c12)CCCC3`: inactive: > 30 µM. Turning to `CC(=O)Nc1ccc(NS(=O)(=O)c2cccc3nonc23)cc1`, the AC50 is inactive: > 30 µM. Next, `O=[N+]([O-])c1ccc(COc2ccccc2/C=N/O)cc1`: inactive: > 30 µM; `Cc1ccc(/C=N/NC(=O)c2nnn(-c3nonc3N)c2CN(C)C)s1`: inactive: > 30 µM. The figure for `COc1ccc(OCc2nc(N)nc(Nc3ccc(C)cc3)n2)cc1` is inactive: > 30 µM; for `O=C(Cn1c(NCCCO)nc2ccccc21)c1ccc([N+](=O)[O-])cc1` it is inactive: > 30 µM.

Regarding `O=C(N/N=C/c1cccc(O)c1)N/N=C/c1cccc(O)c1`, the AC50 was inactive: > 30 µM.

With `O=C1CCCC2=C1C(c1ccc(Br)cc1)c1c([nH]c(=S)[nH]c1=O)N2` (centres undefined), the AC50 is inactive: > 30 µM. In the case of `Cc1cccc(C)c1OCC(O)CNC(C)c1ccccc1` (centres undefined), the AC50 is inactive: > 30 µM.

For `COc1ccc(CC(=O)Oc2ccc(C)cc2C)cc1`, the AC50 is inactive: > 30 µM. Turning to `COC(=O)c1sc(NC(=O)COc2ccc(OC)cc2)nc1C`, the AC50 was inactive: > 30 µM. With `Cc1c(C(=O)OC2CCCCC2)[nH]c2c1C(=O)CC(C)(C)C2`, the AC50 is inactive: > 30 µM. Next, `CCOC(=O)N1CCC(N2CCN(S(=O)(=O)c3ccc(NC(C)=O)cc3)CC2)CC1`: inactive: > 30 µM; `CCCC1=C(C(=O)OCC)C(c2ccc(O)cc2)n2ncnc2N1` (centres undefined): inactive: > 30 µM. Next, `OC(c1cc(C(F)(F)F)nc2c(Cl)cc(Cl)cc12)C1CCCCN1` (centres undefined): inactive: > 30 µM. The figure for `CN1/C(=C/C=C(C#N)C#N)C(C)(C)c2ccccc21` is inactive: > 30 µM. With `Cc1cccc(C)c1NC(=O)COC(=O)Cc1ccsc1`, the AC50 is inactive: > 30 µM. The figure for `COc1cccc(OC)c1C(=O)N1CCN(c2c(Cc3ccccc3)c(C)nc3ncnn23)CC1` is inactive: > 30 µM; for `Cc1cccc(C(=O)Nc2cccc(C(=O)N/N=C/c3ccccn3)c2)c1` it is inactive: > 30 µM. In the case of `CC(C)(C)NCC(O)COc1ccccc1C(C)(C)C` (centres undefined), the AC50 was inactive: > 30 µM. As for `O=C(Cn1ncc2c(=O)oc3ccccc3c21)N1CCc2ccccc2C1`, the AC50 is inactive: > 30 µM.

`CCOCC(=O)Nc1nc2ccc(OC)cc2s1`: the AC50 was inactive: > 30 µM.

Take `CCN1CCN(c2nc(Nc3ccc(C)c(C)c3)nc(N)c2[N+](=O)[O-])CC1`: the AC50 is inactive: > 30 µM.

Turning to `CCOc1cc(/C=C2\SC(N3CCCC(C)C3)=NC2=O)ccc1O` (centres undefined), the AC50 was inactive: > 30 µM.

Take `COc1ccc(COC(=O)C2=C(C)NC(=O)NC2c2cccc(Br)c2)cc1` (centres undefined): the AC50 was inactive: > 30 µM. On to `O=C(COc1ccccc1Br)NC1CC1`, for which the AC50 is inactive: > 30 µM.

Turning to `N#CCC(=O)Nc1sc2c(c1C(N)=O)CCCC2`, the AC50 was inactive: > 30 µM. Next, `Cn1c(=O)c2[nH]c(N3CCOCC3)nc2n(-c2ccccc2)c1=O`: inactive: > 30 µM; `CCN1CCN(c2c(Cl)cccc2NC(=O)c2ccc(Br)o2)CC1`: inactive: > 30 µM; `N#Cc1c(-c2ccccc2)nc(SCc2ccc(Cl)cc2)[nH]c1=O`: inactive: > 30 µM. Next, `COc1cccc(Nc2nc(N)c([N+](=O)[O-])c(NCc3ccccc3)n2)c1`: inactive: > 30 µM.

Turning to `CN1CCN(c2ccccc2NC(=O)c2ccc(-c3ccccc3[N+](=O)[O-])o2)CC1`, the AC50 was inactive: > 30 µM. The figure for `O=C(c1ccc(Cl)cc1)c1cnc(Nc2ccccc2Cl)s1` is inactive: > 30 µM; for `N#Cc1c(Nc2ccccc2)c(C=NCCN2CCOCC2)c[nH]c1=O` it is inactive: > 30 µM; for `Cc1nnc(N/N=C/c2ccc(-c3ccc(Br)cc3)o2)n1N` it is inactive: > 30 µM. With `CCC(C)Nc1nc(N)c([N+](=O)[O-])c(N2CCCCCC2)n1` (centres undefined), the AC50 was inactive: > 30 µM.

With `N#CC1=C2SCN(Cc3ccco3)CN2C(=O)CC1c1cccc2ccccc12` (centres undefined), the AC50 was inactive: > 30 µM.

Turning to `CCOc1cc(/C=N/O)ccc1OCc1ccc([N+](=O)[O-])cc1`, the AC50 is inactive: > 30 µM. With `S=C(Nc1ccc2c(c1)OCCO2)Nc1ccccc1Cl`, the AC50 was inactive: > 30 µM. The figure for `Nc1nc2n(n1)C(c1ccc(Cl)cc1)CC(c1ccc(F)cc1)N2` (centres undefined) is inactive: > 30 µM. The figure for `COc1ccc(CC(=O)N2CCOCC2)cc1OC` is inactive: > 30 µM; for `COc1ccc(-c2c(-c3ccccc3)c(C(=O)C(=O)NCCCN(C)C)n3ccc4cc(OC)c(OC)cc4c23)cc1OC` it is inactive: > 30 µM.

With `CCOc1c(O)ccc(/C=C2\SC(=S)NC2=O)c1[N+](=O)[O-]`, the AC50 is inactive: > 30 µM.

Regarding `Cc1ccc(OCC(=O)N2CCN(c3nnc(-c4ccc(C)cc4)c4ccccc34)CC2)cc1`, the AC50 is inactive: > 30 µM. `COc1ccc(C(=O)C[n+]2cccc(Br)c2)cc1`: the AC50 is inactive: > 30 µM. The figure for `O=C(CNS(=O)(=O)c1ccccc1)N/N=C/c1ccc(O)cc1` is inactive: > 30 µM; for `O=C(CCSc1nc(-c2ccc3c(c2)OCO3)cc(C(F)(F)F)n1)NCc1ccco1` it is inactive: > 30 µM. Next, `O=C(O)c1ccc2c(c1Nc1ccccc1)C(=O)c1ccccc1C2=O`: inactive: > 30 µM; `O=C(O)c1ccc2c(c1)C(=O)N(CCCCCCCN1C(=O)c3ccc(C(=O)O)cc3C1=O)C2=O`: inactive: > 30 µM; `COc1ccc(CCNC(=O)CSc2nc3[nH]ncc3c(=O)n2-c2cccc(C(F)(F)F)c2)cc1OC`: inactive: > 30 µM. Take `Cc1ccc(C2C(C#N)=C(N)Oc3n[nH]c(-c4cccnc4)c32)o1` (centres undefined): the AC50 is inactive: > 30 µM.

As to `CC(=O)C(Sc1ccc2nnc(-c3ccc(C)cc3)n2n1)C(C)=O`, the AC50 was inactive: > 30 µM. Next, `CCSc1nc2sc3c(c2c(=O)n1CC)CC(C)(C)OC3`: inactive: > 30 µM; `COCc1nnc(NC(=O)CCCCCN2C(=O)c3ccccc3C2=O)s1`: inactive: > 30 µM; `C#CCOCCOCCOCCNc1nc(N2CCN(C(=O)CCCCCCCCCCNC(=O)[C@H](CCCCN)n3cc(C)nn3)CC2)nc(N2CCN(C(=O)CCCCCCCCCCNC(=O)[C@H](CCCN=C(N)N)n3cc(C[C@@H](C)CC)nn3)CC2)n1`: inactive: > 30 µM. Next, `c1csc(CNc2ncnc3sccc23)c1`: inactive: > 30 µM; `COc1ccc(OC)c(/C=N/NC(=O)c2nnn(-c3nonc3N)c2-c2cccs2)c1`: inactive: > 30 µM; `CN(c1nc2nonc2nc1NC1CC1)C1CCOC1` (centres undefined): inactive: > 30 µM. In the case of `CC1(C)Cc2c(sc3c2C2=NCCN2C=N3)CS1`, the AC50 was inactive: > 30 µM.

As to `CCOC(=O)c1sc(NC(=O)C2CCC2)cc1C`, the AC50 is inactive: > 30 µM. For the compound `O=[N+]([O-])c1ccc(O)c(/C=N/n2c(-c3ccccc3)n[nH]c2=S)c1`, the AC50 is inactive: > 30 µM. As to `COc1cccc(NC(=O)c2nnn(Cc3ccc(Br)cc3F)c2N)c1`, the AC50 is inactive: > 30 µM. Next, `COc1ccc(/C=C2\Oc3cc(OCC(=O)N4CCC[C@H]4C(=O)O)ccc3C2=O)cc1OC`: inactive: > 30 µM; `CCc1cc2c3c(c1)C(C)CC(C)(C)N3C(=O)/C2=C1\SC(=O)NC1=O` (centres undefined): inactive: > 30 µM; `O=C(Nc1cc(F)cc(F)c1)c1ccc(NCCCN2CCCCCC2)c([N+](=O)[O-])c1`: inactive: > 30 µM. The figure for `Fc1ccccc1CSc1nnc(-c2cccnc2)o1` is inactive: > 30 µM. For the compound `CCOc1cccc(-c2c(C(=O)N/N=C/c3ccco3)nnn2-c2nonc2N)c1`, the AC50 is inactive: > 30 µM. `O=c1cc(-c2ccsc2)oc2ccccc12`: the AC50 is inactive: > 30 µM.

For `COc1ccc(-c2cn3cccnc3n2)cc1NC(=O)C(C)C`, the AC50 was inactive: > 30 µM.

What is called AC50 is the midpoint of the concentration-response curve, whichever way the signal moves.
